Reference: PubChem BioAssay AID1259266 (Sanger Institute, 2017)
Assay: 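Find knock-downs that kill LS123 cells or act with anchor drugs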 (primary screen). System: LS123 human colorectal cancer cells. Reagent: siRNA pool against human genes. Challenge: anchor drugs BYL719 (1 µM), cetuximab (5 µg/ml) or trametinib (10 nM), each chosen to barely slow growth alone; DMSO vehicle as the drug-free arm. Measurement: 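Viability relative to non-targeting control pools, replicate mean, with a robust z-score for knock-down alone and synergy scores for each anchor drug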. Direction: robust z-score, knock-down alone: higher = more cells surviving after knock-down; viability, knock-down alone: higher = more viable cells. Units: viability, knock-down alone in fraction of control. Hit rule: 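a knock-down counts as essential if its z-score without drug is under -3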. Calls: active = essential (knock-down alone cuts viability); inactive = no change.
In all, the deposit lists 794 reagents; shown is a part drawn at random. 16 of them (2%) count as active. 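Calls reflect knock-down alone, not drug synergy; viability seems capped at 1 and z-scores at 0.585.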 Not all columns of the deposit are shown. No sequences are given here. Not stated in the record: the amount of reagent, the time to read-out.

For CDKN1B, what does the deposit list?
robust z-score, knock-down alone: 0.585; viability, knock-down alone: 1; Outcome: inactive

What did the screen give for PTK2B?
robust z-score, knock-down alone: 0.585; viability, knock-down alone: 1; Outcome: inactive

For PRKCH, what does the deposit list?
robust z-score, knock-down alone: -1.48; viability, knock-down alone: 0.877; Outcome: inactive

Which result is listed for TNIK?
robust z-score, knock-down alone: -0.0892; viability, knock-down alone: 0.96; Outcome: inactive

For CPNE3, how do the results read?
robust z-score, knock-down alone: 0.585; viability, knock-down alone: 1; Outcome: inactive

How did the screen score EPHA2?
robust z-score, knock-down alone: 0.585; viability, knock-down alone: 1; Outcome: inactive

For EPHB2, what was measured?
robust z-score, knock-down alone: -1.29; viability, knock-down alone: 0.888; Outcome: inactive

With PRPS1, what does the deposit list?
robust z-score, knock-down alone: 0.504; viability, knock-down alone: 0.995; Outcome: inactive

What did the screen give for NADK?
robust z-score, knock-down alone: -0.814; viability, knock-down alone: 0.917; Outcome: inactive

For TAOK1, how do the results read?
robust z-score, knock-down alone: 0.585; viability, knock-down alone: 1; Outcome: inactive

Which result is listed for ADCK2?
robust z-score, knock-down alone: -2.22; viability, knock-down alone: 0.833; Outcome: inactive

For BMP2K, how do the results read?
robust z-score, knock-down alone: 0.585; viability, knock-down alone: 1; Outcome: inactive

What did the screen give for STK32C?
robust z-score, knock-down alone: 0.585; viability, knock-down alone: 1; Outcome: inactive

With CNOT1, how do the results read?
robust z-score, knock-down alone: -3.45; viability, knock-down alone: 0.76; Outcome: active

Which result is listed for SCYL1?
robust z-score, knock-down alone: 0.585; viability, knock-down alone: 1; Outcome: inactive

For NME7, how do the results read?
robust z-score, knock-down alone: 0.585; viability, knock-down alone: 1; Outcome: inactive

How did the screen score NF1?
robust z-score, knock-down alone: 0.585; viability, knock-down alone: 1; Outcome: inactive

Which result is listed for MYLK4?
robust z-score, knock-down alone: 0.585; viability, knock-down alone: 1; Outcome: inactive

What is on record for EPHA10?
robust z-score, knock-down alone: -1.5; viability, knock-down alone: 0.876; Outcome: inactive

What did the screen give for PIP4K2C?
robust z-score, knock-down alone: -0.0785; viability, knock-down alone: 0.961; Outcome: inactive

How did the screen score IPPK?
robust z-score, knock-down alone: -2.45; viability, knock-down alone: 0.819; Outcome: inactive

With MAPK14, what does the deposit list?
robust z-score, knock-down alone: -1.5; viability, knock-down alone: 0.876; Outcome: inactive

How did the screen score DCK?
robust z-score, knock-down alone: 0.14; viability, knock-down alone: 0.974; Outcome: inactive

What is on record for EPHB3?
robust z-score, knock-down alone: -0.662; viability, knock-down alone: 0.926; Outcome: inactive

How did the screen score MOK?
robust z-score, knock-down alone: 0.585; viability, knock-down alone: 1; Outcome: inactive

For PRKACG, what does the deposit list?
robust z-score, knock-down alone: 0.585; viability, knock-down alone: 1; Outcome: inactive

For PHKB, what was measured?
robust z-score, knock-down alone: 0.585; viability, knock-down alone: 1; Outcome: inactive

For PIK3R1, what does the deposit list?
robust z-score, knock-down alone: 0.585; viability, knock-down alone: 1; Outcome: inactive

Reprinted from above for reference:
PRPS1 | robust z-score, knock-down alone = 0.504; viability, knock-down alone = 0.995; Outcome = inactive
NADK | robust z-score, knock-down alone = -0.814; viability, knock-down alone = 0.917; Outcome = inactive
